# The supplement of paper PMC12067093, “Discovery and optimisation of a covalent ligand for TRIM25 and its application to targeted protein ubiquitination” (Chemical Science, 2025)
# The chains behind the UniProt entries cited, without tags or fusion partners. Where a name states a change or a piece, a line headed by the entry shows the natural chain unless it says otherwise.
# UniProt Q8N3D4: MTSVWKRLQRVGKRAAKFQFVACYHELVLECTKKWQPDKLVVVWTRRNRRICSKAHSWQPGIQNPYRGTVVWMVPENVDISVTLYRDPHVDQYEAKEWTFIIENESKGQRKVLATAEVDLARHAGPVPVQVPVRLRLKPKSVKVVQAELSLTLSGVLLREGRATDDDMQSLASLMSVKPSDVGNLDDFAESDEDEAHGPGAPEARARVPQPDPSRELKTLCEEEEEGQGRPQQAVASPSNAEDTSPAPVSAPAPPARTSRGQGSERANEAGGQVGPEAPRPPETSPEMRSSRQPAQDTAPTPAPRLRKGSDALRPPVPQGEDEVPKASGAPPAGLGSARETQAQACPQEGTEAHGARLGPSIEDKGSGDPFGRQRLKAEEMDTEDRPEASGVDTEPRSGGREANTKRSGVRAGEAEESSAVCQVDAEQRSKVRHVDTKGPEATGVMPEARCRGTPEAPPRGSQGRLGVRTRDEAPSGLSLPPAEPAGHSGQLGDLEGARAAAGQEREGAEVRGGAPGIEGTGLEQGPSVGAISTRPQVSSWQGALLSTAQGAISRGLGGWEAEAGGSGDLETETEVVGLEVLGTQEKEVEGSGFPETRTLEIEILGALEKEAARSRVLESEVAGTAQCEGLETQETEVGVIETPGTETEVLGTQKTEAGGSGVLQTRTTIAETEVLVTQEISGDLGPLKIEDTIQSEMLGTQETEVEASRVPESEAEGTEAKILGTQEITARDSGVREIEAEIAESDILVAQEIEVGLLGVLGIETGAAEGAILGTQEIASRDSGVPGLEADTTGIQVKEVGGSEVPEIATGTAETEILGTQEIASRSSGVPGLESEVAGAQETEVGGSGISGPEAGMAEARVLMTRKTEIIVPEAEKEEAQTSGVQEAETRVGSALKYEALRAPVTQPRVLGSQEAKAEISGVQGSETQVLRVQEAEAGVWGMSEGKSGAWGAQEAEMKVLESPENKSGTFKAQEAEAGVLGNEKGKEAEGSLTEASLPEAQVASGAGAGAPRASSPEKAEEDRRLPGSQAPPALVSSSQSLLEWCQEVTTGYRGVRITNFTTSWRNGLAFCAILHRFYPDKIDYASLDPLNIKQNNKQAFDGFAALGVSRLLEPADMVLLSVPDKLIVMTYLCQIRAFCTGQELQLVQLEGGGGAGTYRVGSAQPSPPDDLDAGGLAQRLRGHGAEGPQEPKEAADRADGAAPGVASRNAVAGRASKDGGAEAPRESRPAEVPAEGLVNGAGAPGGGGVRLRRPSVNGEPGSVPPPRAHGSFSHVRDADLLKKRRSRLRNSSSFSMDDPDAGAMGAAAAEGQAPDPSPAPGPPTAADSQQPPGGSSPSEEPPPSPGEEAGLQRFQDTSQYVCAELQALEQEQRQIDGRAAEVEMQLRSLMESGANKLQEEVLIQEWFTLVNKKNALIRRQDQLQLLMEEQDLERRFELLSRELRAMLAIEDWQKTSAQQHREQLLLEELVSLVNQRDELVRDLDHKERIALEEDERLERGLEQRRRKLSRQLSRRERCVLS
# UniProt O60739, whole entry: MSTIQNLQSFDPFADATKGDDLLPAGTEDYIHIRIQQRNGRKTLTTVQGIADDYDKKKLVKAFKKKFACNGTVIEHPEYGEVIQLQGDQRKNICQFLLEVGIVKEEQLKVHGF
# UniProt P19525: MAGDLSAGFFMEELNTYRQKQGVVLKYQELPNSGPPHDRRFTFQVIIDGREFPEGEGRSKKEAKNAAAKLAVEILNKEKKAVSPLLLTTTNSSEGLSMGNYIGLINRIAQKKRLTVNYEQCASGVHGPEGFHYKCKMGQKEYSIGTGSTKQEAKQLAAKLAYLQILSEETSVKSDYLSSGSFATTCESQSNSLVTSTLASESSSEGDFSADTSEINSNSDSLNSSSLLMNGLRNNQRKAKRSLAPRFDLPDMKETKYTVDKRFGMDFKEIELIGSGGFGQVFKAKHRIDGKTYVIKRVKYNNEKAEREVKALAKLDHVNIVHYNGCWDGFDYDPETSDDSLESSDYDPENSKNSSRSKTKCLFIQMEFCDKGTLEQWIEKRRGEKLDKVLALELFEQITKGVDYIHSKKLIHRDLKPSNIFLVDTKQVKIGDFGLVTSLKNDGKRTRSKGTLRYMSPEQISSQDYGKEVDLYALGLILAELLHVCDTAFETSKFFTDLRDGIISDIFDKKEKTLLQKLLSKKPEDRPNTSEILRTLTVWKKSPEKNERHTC
# UniProt Q14232, whole entry, looked up: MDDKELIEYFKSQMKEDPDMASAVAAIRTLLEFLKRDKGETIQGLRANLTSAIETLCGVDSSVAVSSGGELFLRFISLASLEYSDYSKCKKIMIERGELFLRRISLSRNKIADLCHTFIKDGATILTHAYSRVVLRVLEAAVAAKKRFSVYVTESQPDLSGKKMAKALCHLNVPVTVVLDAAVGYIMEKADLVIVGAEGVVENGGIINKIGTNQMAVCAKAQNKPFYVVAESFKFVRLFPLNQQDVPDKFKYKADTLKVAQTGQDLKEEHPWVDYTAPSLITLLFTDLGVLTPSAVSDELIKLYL
# UniProt Q12805: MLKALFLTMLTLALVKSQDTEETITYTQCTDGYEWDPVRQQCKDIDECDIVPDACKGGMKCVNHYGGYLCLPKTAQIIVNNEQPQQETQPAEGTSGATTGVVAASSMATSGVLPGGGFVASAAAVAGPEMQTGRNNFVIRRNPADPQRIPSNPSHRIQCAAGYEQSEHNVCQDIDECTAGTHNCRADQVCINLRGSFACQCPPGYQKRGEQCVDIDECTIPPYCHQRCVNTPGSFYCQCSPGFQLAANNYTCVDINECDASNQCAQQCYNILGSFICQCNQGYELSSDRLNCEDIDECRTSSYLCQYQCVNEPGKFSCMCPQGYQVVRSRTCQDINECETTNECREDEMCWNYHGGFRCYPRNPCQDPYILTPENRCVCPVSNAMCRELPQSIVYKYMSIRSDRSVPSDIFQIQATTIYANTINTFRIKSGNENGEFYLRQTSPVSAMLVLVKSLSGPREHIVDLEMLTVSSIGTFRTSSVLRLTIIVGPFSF
# UniProt P20042, whole entry, looked up: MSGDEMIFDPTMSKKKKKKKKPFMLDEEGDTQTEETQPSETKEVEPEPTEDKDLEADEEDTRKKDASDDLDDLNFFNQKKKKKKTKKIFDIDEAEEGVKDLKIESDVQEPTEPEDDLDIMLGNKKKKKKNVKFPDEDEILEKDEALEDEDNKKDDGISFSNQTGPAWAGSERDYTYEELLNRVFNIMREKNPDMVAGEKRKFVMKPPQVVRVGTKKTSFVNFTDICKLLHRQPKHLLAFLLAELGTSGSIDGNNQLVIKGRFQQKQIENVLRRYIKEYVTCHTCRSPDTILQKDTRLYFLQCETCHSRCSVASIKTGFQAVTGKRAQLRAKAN
# UniProt P57772: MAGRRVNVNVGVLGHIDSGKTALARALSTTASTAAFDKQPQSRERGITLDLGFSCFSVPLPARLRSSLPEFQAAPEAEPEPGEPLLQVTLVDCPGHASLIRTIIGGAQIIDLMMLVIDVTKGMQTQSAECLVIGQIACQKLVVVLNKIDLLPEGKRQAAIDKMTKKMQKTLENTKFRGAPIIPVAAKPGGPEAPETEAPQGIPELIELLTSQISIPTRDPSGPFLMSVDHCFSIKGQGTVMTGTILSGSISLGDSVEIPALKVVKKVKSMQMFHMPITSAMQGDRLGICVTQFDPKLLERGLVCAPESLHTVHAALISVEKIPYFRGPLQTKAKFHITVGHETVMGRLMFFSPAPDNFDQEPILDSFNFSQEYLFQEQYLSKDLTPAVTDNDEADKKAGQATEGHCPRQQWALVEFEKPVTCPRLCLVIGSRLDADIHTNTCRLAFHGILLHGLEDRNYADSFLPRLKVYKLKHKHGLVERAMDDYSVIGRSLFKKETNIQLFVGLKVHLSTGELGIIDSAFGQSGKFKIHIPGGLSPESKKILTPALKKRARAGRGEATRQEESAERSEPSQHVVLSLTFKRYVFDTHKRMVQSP
# UniProt P42126: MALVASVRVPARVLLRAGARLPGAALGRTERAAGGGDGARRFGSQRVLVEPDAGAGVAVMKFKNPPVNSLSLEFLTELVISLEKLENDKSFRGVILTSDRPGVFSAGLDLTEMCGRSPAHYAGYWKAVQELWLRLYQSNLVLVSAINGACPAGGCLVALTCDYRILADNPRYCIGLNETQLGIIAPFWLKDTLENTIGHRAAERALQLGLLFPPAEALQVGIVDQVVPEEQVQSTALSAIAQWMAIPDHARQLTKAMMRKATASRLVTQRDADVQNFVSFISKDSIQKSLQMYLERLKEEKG
# UniProt Q6P2E9: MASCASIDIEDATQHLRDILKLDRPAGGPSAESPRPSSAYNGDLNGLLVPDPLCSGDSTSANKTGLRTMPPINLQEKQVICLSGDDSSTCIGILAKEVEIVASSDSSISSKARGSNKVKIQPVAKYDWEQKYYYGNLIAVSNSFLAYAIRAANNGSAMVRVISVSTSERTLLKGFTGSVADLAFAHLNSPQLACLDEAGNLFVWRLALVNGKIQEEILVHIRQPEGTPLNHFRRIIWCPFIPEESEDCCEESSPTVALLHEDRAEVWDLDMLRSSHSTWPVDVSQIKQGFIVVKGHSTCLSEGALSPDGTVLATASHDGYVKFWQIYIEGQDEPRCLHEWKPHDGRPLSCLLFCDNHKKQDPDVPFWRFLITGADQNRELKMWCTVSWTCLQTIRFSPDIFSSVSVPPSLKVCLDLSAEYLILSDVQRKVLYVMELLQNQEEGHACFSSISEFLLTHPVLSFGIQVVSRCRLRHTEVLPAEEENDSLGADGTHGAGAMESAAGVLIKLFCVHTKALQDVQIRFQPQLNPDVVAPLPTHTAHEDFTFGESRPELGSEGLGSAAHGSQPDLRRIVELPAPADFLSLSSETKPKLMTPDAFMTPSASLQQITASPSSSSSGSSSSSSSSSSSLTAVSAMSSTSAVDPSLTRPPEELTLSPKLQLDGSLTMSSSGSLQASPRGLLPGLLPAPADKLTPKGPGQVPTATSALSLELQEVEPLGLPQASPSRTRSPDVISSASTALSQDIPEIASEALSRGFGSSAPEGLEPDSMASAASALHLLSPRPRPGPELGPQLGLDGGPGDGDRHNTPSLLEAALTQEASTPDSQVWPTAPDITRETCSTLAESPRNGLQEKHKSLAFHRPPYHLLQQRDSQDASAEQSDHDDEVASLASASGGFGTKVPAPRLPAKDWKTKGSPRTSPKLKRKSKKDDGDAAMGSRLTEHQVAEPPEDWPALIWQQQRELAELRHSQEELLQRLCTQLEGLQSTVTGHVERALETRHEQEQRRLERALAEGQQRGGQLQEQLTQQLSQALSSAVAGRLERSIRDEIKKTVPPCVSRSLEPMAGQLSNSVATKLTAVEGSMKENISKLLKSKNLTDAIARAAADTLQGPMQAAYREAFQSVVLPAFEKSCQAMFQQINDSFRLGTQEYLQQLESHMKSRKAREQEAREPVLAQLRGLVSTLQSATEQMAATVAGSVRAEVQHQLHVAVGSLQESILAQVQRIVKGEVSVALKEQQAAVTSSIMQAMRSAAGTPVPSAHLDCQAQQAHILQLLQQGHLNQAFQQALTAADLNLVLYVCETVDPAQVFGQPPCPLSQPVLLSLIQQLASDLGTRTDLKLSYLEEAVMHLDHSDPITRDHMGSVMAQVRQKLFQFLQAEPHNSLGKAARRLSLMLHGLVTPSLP
# UniProt P49770: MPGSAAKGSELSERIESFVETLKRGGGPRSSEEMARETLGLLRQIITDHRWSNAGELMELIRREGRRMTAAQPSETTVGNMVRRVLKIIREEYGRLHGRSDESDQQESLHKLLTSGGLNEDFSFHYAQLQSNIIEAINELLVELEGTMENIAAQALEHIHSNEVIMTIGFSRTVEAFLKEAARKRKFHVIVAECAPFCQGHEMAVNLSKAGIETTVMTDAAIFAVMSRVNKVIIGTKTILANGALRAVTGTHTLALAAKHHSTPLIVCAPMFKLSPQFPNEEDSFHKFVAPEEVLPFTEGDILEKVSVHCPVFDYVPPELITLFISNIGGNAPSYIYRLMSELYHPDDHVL
# UniProt P41567, whole entry, looked up: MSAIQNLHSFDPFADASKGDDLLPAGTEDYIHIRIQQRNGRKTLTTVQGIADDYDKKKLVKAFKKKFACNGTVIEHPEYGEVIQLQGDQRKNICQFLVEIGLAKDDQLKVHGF
# UniProt P26641, whole entry, looked up: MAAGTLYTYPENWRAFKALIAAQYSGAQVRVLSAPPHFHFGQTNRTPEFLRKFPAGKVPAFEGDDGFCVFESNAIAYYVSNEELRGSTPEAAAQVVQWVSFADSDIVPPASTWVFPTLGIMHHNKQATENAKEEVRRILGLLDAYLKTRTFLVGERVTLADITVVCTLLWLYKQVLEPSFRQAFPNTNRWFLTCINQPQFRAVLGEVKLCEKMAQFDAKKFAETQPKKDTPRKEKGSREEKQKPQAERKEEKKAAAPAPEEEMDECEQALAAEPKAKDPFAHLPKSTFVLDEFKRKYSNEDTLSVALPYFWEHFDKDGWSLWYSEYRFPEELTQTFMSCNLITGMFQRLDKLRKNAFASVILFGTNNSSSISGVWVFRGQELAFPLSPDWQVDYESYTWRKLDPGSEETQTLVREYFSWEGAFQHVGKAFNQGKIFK
# This is one part of the list.
# Compound: Cc1cc(ccc1-c1ccccc1)C(=O)N1CCCN(CC1)C(=O)CCl [compound 10]
# Assay: probe-labelled cysteine peptide fold change vs DMSO (competition) (log2 fold change); higher = less target engagement (more negative = stronger competition)
# Settings: 10 µM; THP-1; incubation time: 4 h
# 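Note: competitive profiling in live THP-1 cells: cysteine peptides tagged with an iodoacetamide desthiobiotin (IA-DTB) probe, intensity after compound treatment relative to DMSO-treated cells.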
row,Target,probe-labelled cysteine peptide fold change
1,EHBP1L1_Q8N3D4_346_ETQAQACPQEGTEAHGAR (UniProt Q8N3D4),-0.258
2,EIF1B_O60739_94_NICQFLLEVGIVK (UniProt O60739),0.546
3,EDC3_Q96F86_477_IYLCDIGIPQQVFQEVGINYHSPFGCK (UniProt Q96F86),0.342
4,EIF2AK2_P19525_121_LTVNYEQCASGVHGPEGFHYK (UniProt P19525),0.0266
5,EFTUD2_Q15029_144+148_TCFVDCLIEQTHPEIR (UniProt Q15029),-0.176
6,EHMT1_Q9H9B1_842_DAEGSTCLHLAAK (UniProt Q9H9B1),0.306
7,EIF2B1_Q14232_218_IGTNQMAVCAK (UniProt Q14232),-0.148
8,EDC3_Q96F86_272_EFCTDSGLVVPSISYELHK (UniProt Q96F86),0.052
9,EFEMP1_Q12805_190_ADQVCINLR (UniProt Q12805),-0.311
10,EHMT1_Q9H9B1_802_SPLHAAAEAGHVDICHMLVQAGANIDTCSEDQR (UniProt Q9H9B1),0.0504
11,EIF2S2_P20042_309_CSVASIK (UniProt P20042),-0.0864
12,EEF2_P13639_136_VTDGALVVVDCVSGVCVQTETVLR (UniProt P13639),0.332
13,EEFSEC_P57772_55_GITLDLGFSCFSVPLPAR (UniProt P57772),0.415
14,EEF1A1_P68104_370_GNVAGDSKNDPPMEAAGFTAQVIILNHPGQISAGYAPVLDCHTAHIACK (UniProt P68104),-0.032
15,ECI1_P42126_114_GVILTSDRPGVFSAGLDLTEMCGR (UniProt P42126),0.00835
16,EEFSEC_P57772_442_LDADIHTNTCR (UniProt P57772),-0.204
17,EEF1A1_P68104_411_SGDAAIVDMVPGKPMCVESFSDYPPLGR (UniProt P68104),-0.174
18,EDC4_Q6P2E9_838_ETCSTLAESPR (UniProt Q6P2E9),-0.291
19,EEF1A1_P68104_363+370_NDPPMEAAGFTAQVIILNHPGQISAGYAPVLDCHTAHIACK (UniProt P68104),-0.143
20,EEF1A1_P68104_363_NDPPMEAAGFTAQVIILNHPGQISAGYAPVLDCHTAHIACK (UniProt P68104),-0.043

# Same assay, conditions: 50 µM; THP-1; incubation time: 4 h
row,Target,probe-labelled cysteine peptide fold change
1,EED_O75530_126_VTLYECHSQGEIR (UniProt O75530),0.297
2,EIF2B2_P49770_194+198_FHVIVAECAPFCQGHEMAVNLSK (UniProt P49770),0.24
3,EHD4_Q9H223_141_FMCSQLPNQVLK (UniProt Q9H223),0.00663
4,EIF2D_P41214_386_EQPYHPPDIKPLYCVPASMTLLFQESGHK (UniProt P41214),-0.123
5,EFL1_Q7Z2Z2_646_LLNQADPCVQILIQETGEHVLVTAGEVHLQR (UniProt Q7Z2Z2),0.0963
6,EIF1_P41567_94_NICQFLVEIGLAK (UniProt P41567),-0.282
7,EIF2D_P41214_442_LDPILCDCILEK (UniProt P41214),-0.148
8,EIF2S1_P05198_70_IGRNECVVVIR (UniProt P05198),0.0284
9,EIF1AX_P47813_51_LEAMCFDGVK (UniProt P47813),0.162
10,EIF3B_P55884_302_YWLEEAECRDQYSVIFESGDR (UniProt P55884),0.026
11,EIF1_P41567_94_KNICQFLVEIGLAK (UniProt P41567),-0.602
12,EEF1G_P26641_266_KAAAPAPEEEMDECEQALAAEPK (UniProt P26641),-0.753
13,ECPAS_Q5VYK3_1420_SCAFAMGHLVR (UniProt Q5VYK3),0.151
14,ECT2_Q9H8V3_157_VIGPPVVLNCSQK (UniProt Q9H8V3),-0.252
15,EEF1G_P26641_339_FPEELTQTFMSCNLITGMFQR (UniProt P26641),0.751
16,EHMT1_Q9H9B1_627_VNNASYCPHCGEESSK (UniProt Q9H9B1),0.178
17,EHBP1L1_Q8N3D4_346_ETQAQACPQEGTEAHGAR (UniProt Q8N3D4),-0.454
18,EIF1B_O60739_94_NICQFLLEVGIVK (UniProt O60739),0.0715

row,Target,probe-labelled cysteine peptide fold change
1,EDC3_Q96F86_477_IYLCDIGIPQQVFQEVGINYHSPFGCK (UniProt Q96F86),-0.513
2,EIF2AK2_P19525_121_LTVNYEQCASGVHGPEGFHYK (UniProt P19525),0.0963
3,EFTUD2_Q15029_144+148_TCFVDCLIEQTHPEIR (UniProt Q15029),-0.0405
4,EHMT1_Q9H9B1_842_DAEGSTCLHLAAK (UniProt Q9H9B1),0.322
5,EIF2B1_Q14232_218_IGTNQMAVCAK (UniProt Q14232),-0.133
6,EDC3_Q96F86_272_EFCTDSGLVVPSISYELHK (UniProt Q96F86),-0.118
7,EFEMP1_Q12805_190_ADQVCINLR (UniProt Q12805),-0.139
8,EHMT1_Q9H9B1_802_SPLHAAAEAGHVDICHMLVQAGANIDTCSEDQR (UniProt Q9H9B1),-0.286
9,EIF2S2_P20042_309_CSVASIK (UniProt P20042),-0.0821
10,EEF2_P13639_136_VTDGALVVVDCVSGVCVQTETVLR (UniProt P13639),0.221
11,EEFSEC_P57772_55_GITLDLGFSCFSVPLPAR (UniProt P57772),-0.0944
12,EEF1A1_P68104_370_GNVAGDSKNDPPMEAAGFTAQVIILNHPGQISAGYAPVLDCHTAHIACK (UniProt P68104),-0.853
13,ECI1_P42126_114_GVILTSDRPGVFSAGLDLTEMCGR (UniProt P42126),0.131
14,EEFSEC_P57772_442_LDADIHTNTCR (UniProt P57772),-1.14
15,EEF1A1_P68104_411_SGDAAIVDMVPGKPMCVESFSDYPPLGR (UniProt P68104),-0.359
16,EDC4_Q6P2E9_838_ETCSTLAESPR (UniProt Q6P2E9),-0.151
17,EEF1A1_P68104_363+370_NDPPMEAAGFTAQVIILNHPGQISAGYAPVLDCHTAHIACK (UniProt P68104),-0.158
18,EEF1A1_P68104_363_NDPPMEAAGFTAQVIILNHPGQISAGYAPVLDCHTAHIACK (UniProt P68104),0.0117
